The target of this test is recombinant human histone 1 (human) (UniProt P07305). The experiment in a line: far-Western, overlay or dot blot; 50 ng of each recombinant human histone resolved on a 15% SDS-polyacrylamide gel, transferred on PVDF membrane, probed with biotinylated IGFBP-3, detected with streptavidin-HRP; both purified.

The chains behind the UniProt entries cited, without tags or fusion partners.
UniProt P07305: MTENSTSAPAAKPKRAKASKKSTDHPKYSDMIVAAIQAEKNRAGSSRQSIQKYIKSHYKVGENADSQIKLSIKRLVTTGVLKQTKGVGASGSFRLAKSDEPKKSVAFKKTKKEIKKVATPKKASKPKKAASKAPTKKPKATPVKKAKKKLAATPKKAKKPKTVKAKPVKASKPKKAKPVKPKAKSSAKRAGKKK

The values that follow come from PMC7796407.

Results are given in words; binding and its absence hold for the method and conditions named.

As for “biotinylated human IGFBP-3 (insulin-like growth factor binding protein-3) (from UniProt P17936 28-291)”, the binding entry is “no binding (tested: 50 ng)”.
